From publication PMC5432325
No constants are given. Whether binding was seen depends on the method and setting. Binding seen in cells or lysates may run through a third protein. Some results given as binding are weak or reduced against the parent protein; the word gives no strength.

Tests used:
[1] = biological target: FLAG tagged human RET51 (long RET isoform) (human) (UniProt P07949); experiment: co-IP; as a5, HEK-293 cells without EGF stimulation; IP with anti-FLAG antibody, blot with anti-EGFR antibody
[2] = biological target: FLAG tagged human RET51 (long RET isoform) (human) (UniProt P07949); experiment: co-IP; lysates of HEK-293 cells transfected with p-RET51 or p-RET9, 72 hours after transfection, with EGF stimulation; IP with mouse monoclonal anti-FLAG antibody overnight at 4°C, blot with anti-EGFR antibody

binding [2]: binds
Substance: epidermal growth factor receptor (EGFR) (from UniProt P00533 25-1210)
binding [1]: no binding (condition: cells without EGF stimulation)
